Among the data in publication PMC4528719, “Functional role of dimerization and CP190 interacting domains of CTCF protein in Drosophila melanogaster” (BMC Biology, 2015) are binding values, retold here.

These are yes or no findings as the source states them, for the method shown. A result given as binding can be weak or reduced; the word gives no strength. For some of these results: Where a sequence is shown, tags or fusion partners need not be part of it.

The target in experiment [1] is T1, full-length CP190 (yeast two-hybrid) (Drosophila) (UniProt Q24478).
T1 sequence: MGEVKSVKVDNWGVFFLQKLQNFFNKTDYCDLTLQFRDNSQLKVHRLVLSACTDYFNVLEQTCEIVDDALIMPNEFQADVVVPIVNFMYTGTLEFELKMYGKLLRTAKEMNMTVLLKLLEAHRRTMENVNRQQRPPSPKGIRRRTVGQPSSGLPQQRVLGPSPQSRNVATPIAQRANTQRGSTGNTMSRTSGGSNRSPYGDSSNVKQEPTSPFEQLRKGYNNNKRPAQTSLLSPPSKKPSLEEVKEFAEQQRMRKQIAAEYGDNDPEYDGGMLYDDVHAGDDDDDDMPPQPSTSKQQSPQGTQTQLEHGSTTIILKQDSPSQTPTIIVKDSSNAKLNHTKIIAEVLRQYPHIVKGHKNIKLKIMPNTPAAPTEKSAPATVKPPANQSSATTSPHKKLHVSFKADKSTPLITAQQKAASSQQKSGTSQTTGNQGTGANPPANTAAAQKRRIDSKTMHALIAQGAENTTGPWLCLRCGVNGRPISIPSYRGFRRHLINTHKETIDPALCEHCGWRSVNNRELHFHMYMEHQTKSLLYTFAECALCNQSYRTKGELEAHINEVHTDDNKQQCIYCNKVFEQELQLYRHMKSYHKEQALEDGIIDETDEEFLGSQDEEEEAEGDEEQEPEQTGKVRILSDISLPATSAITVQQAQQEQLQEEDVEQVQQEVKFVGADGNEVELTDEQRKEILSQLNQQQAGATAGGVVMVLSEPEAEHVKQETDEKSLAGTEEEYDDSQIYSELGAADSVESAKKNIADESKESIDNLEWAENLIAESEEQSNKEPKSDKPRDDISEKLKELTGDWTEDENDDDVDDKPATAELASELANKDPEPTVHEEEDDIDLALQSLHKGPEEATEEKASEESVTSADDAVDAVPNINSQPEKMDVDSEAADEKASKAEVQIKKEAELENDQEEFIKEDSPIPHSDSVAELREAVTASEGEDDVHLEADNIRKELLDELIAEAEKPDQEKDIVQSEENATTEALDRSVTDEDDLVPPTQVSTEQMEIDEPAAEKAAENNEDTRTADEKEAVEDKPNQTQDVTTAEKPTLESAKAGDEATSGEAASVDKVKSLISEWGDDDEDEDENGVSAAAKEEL
Description: two-hybrid; yeast; dCTCF or its parts fused to GAL4 AD, CP190 or its sub-fragments fused to GAL4 DNA BD (Fig. 3b).

Experiment [2] addresses CP190 BTB domain fused to the GAL4 DNA BD (Drosophila) (UniProt Q24478). The description is as above.

On to “dCTCF CTD alone fused to the GAL4 activation domain (Drosophila melanogaster) (domain or fragment)”, for which the binding result in experiment [1] was “binds”.

“dCTCF zinc fingers plus the CTD fused to the GAL4 activation domain (Drosophila melanogaster) (domain or fragment)”: the binding result in experiment [1] was “binds”.

Consider “dCTCF NTD fused to the GAL4 activation domain (Drosophila melanogaster) (domain or fragment)”, for which, in experiment [1], the binding entry is given as “no binding”.

B1: full-length dCTCF fused to the GAL4 activation domain (protein, UniProt Q9VS55 1-818)
chain: MPRRTKKDEDPEDLQTFLNNFHKEIEGNSDEKVVNTILEAISAEAIDLDENGAEAGGSKPMEEAEADLDHAEEAEEEEEDDEDKYFIDDEGNCYIKTTPKKQKELQKKLKQAAAKPGKATRSVVSTATNKSINLRPAKSTPKATTSKPPPEPKAISVRPARAAAAKAKQSAMPPPPALVVKVPAPRGRPRKNPVIPKPEPMDLERELEELVDEPDISSMVTELSDYTVDEAAVEAATATLTPNEAEVYEFEDNATTEDENADKKDVDFVLSNKEVKLKTASSTSQNSNASGHKYSCPHCPYTASKKFLITRHSRSHDVEPSFKCSICERSFRSNVGLQNHINTHMGNKPHKCKLCESAFTTSGELVRHTRYKHTKEKPHKCTECTYASVELTKLRRHMTCHTGERPYQCPHCTYASQDMFKLKRHMVIHTGEKKYQCDICKSRFTQSNSLKAHKLIHSVVDKPVFQCNYCPTTCGRKADLRVHIKHMHTSDVPMTCRRCGQQLPDRYQYKLHVKSHEGEKCYSCKLCSYASVTQRHLASHMLIHLDEKPFHCDQCPQAFRQRQLLRRHMNLVHNEEYQPPEPREKLHKCPSCPREFTHKGNLMRHMETHDDSANAREKRRRLKLGRNVRLQKDGTVITLIKDQYVDMDRDQEENEEDDNPESYDLAEIEPENSEAEDADDDVETIVSDPIRQRIKPAPIIINKQARLAASEKQPMIINQRLRSQRGTKTFHIKEEPDNSDFTVEWQGDDGEVMVVELVNGDEEVLVKHEPSANSKISAKNCFGFEDDDDYEEYGDGENEVDGASQEFLQLMDMIEQDS
For the molecule B1, the binding result in experiment [2] is on record as “binds”.
